Nine sequences from publication PMC10450178 can be followed below.

For part of these data: Negatives hold for the conditions tested. For part of these data: At least one verdict was read from the data and is not stated in words by the source. For part of these data: A weaker result is weaker than the reference pair of the same experiment. For part of these data: For at least one entry, the source does not settle the construct or the ends of the probe.

Data set [1] deals with hen egg-white lysozyme (HEL) (hen) (UniProt P00698). Briefly: SPR. Conditions: 200 nM, used to define background; all-HNA; Buffer R: 20 mM HEPES pH 7.4-7.5, 20 mM NaOAc, 140 mM KOAc, 3 mM Mg(OAc)2, 0.1% Tween20; SPR at 20 C, BLI temperature not stated; commercial protein; protein details: biotin (NHS-PEG4 for BLI); synthetic backbone; letters put together from the description.

Data set [2] has as its target hen egg-white lysozyme (HEL) (Gallus gallus) (UniProt P00698). Briefly: BLI. Conditions: all-HNA; Buffer R: 20 mM HEPES pH 7.5, 20 mM NaOAc, 140 mM KOAc, 3 mM Mg(OAc)2, 0.1% Tween20; BLI temperature not stated; commercial protein; protein details: biotin (NHS-PEG4); synthetic backbone; letters put together from the description.
The target of data set [3] is HEL K1A K19A (hen) (UniProt P00698). Briefly: BLI. Conditions: 100 nM core14; all-HNA (1',5'-anhydrohexitol); Buffer R: 20 mM HEPES pH 7.4-7.5, 20 mM NaOAc, 140 mM KOAc, 3 mM Mg(OAc)2, 0.1% Tween20; recombinant protein; protein details: biotin (NHS-PEG4); synthetic backbone.
Data set [4] concerns the target HEL R61A R79A (hen) (UniProt P00698). The data set can be described thus: BLI. Conditions: 100 nM core14; all-HNA (1',5'-anhydrohexitol); Buffer R: 20 mM HEPES pH 7.4-7.5, 20 mM NaOAc, 140 mM KOAc, 3 mM Mg(OAc)2, 0.1% Tween20; recombinant protein; protein details: biotin (NHS-PEG4); synthetic backbone.
For data set [5], the target named is HEL R73A R91A (hen) (UniProt P00698). The data set can be described thus: BLI. Conditions: 100 nM core14; all-HNA (1',5'-anhydrohexitol); Buffer R: 20 mM HEPES pH 7.4-7.5, 20 mM NaOAc, 140 mM KOAc, 3 mM Mg(OAc)2, 0.1% Tween20; recombinant protein; protein details: biotin (NHS-PEG4); synthetic backbone.
The target of data set [6] is HEL position 66 alanine mutant D84A (hen) (UniProt P00698). The data set can be described thus: BLI. Conditions: 100 nM core14, hotspot; all-HNA (1',5'-anhydrohexitol); Buffer R: 20 mM HEPES pH 7.4-7.5, 20 mM NaOAc, 140 mM KOAc, 3 mM Mg(OAc)2, 0.1% Tween20; recombinant protein; protein details: biotin (NHS-PEG4); synthetic backbone.
The target in data set [7] is hen egg-white lysozyme (HEL) (hen) (UniProt P00698). Briefly: BLI. Conditions: all-HNA; Buffer R: 20 mM HEPES pH 7.4-7.5, 20 mM NaOAc, 140 mM KOAc, 3 mM Mg(OAc)2, 0.1% Tween20; commercial protein; protein details: biotin (NHS-PEG4 for BLI); synthetic backbone; letters put together from the description.

Regarding “AGGTAGTGCTGTTCGTTCATCTCAAATCTAGTTCGCTATCCAGTTGGC [T5-S8-7 (anti-TAR HNA aptamer)]”, the binding result in data set [1] was “no binding”.

“GACTTGCGTGGTTCTATTGTTACCGTTCGTCAT [core13 scrambled]”: the binding result in data set [1] is “no binding”.

As to “GTTCGTTTAAATGTGTGTCGTCATTCGCTATCC [core13 G23A]”, the binding result in data set [2] is “no binding”.

Take “GTTCGTTTAAATGTGTGTCATCGTTCGCTATCC [core13 G20A]”: the binding result in data set [2] is listed as “no binding”.

On to “GTTCGTTTAAGTGTGTGTCGTCGTTCGCTATCC [core13 A11G]”, for which, in data set [2], the binding result is on record as “no binding”.

As for “GTGCTGTTCGTTTAAATGTGTGTCGTCGTTCGCTATCC [LYS-S8-19-core14 (HNA)]”, the binding result in data set [3], in data set [4], in data set [5] and in data set [6] was “binds more weakly” throughout.

Regarding “GTCCGTTTAAATGTGTGTCGTCGTTCGCTATCC [core13 T3C]”, the binding result in data set [2] is on record as “no binding”.

Turning to “GTTCGTTTAAATATGTGTCGTCGTTCGCTATCC [core13 G13A]”, the binding result in data set [7] is “binds more weakly”.

For the sequence “GTTCGTTTAAATGTGTGTCGTCGTTCCCTATCC [core13 G27C]”, the binding result in data set [7] is reported as “binds more weakly”.
